This note sets out measurements from PubChem BioAssay AID1347423 (Functional Genomics Laboratory (NCATS/FGL), 2020).

Among all 52,000 sequences or so, about 210 (0.4%) were called active.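 Rule for the calls: active = gene whose silencing raises cell survival under the drug, median off-target-corrected z-score across its silencing RNAs 2 or more; inactive = the rest.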 This is one part of the list.

This test can be described thus: Resistance to Poly (ADP-Ribose) Polymerase inhibitor: Gene Identification via Genome-wide siRNA Screen. The settings on record: mouse BRCA2 R2336H ES cells, olaparib, CellTiter-Glo viability; active compounds read high. The gist of the method: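 Genome-wide siRNA screen (3 siRNAs/gene, 20 nM) in mouse ES cells carrying hypomorphic BRCA2 R2336H; olaparib 500 nM added 48 h post-transfection, CellTiter-Glo viability 72 h later. Normalized to plate-median negative control; MAD z-scores, gene median, seed-adjusted.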
A general note: ATP-based viability assays read luminescence as a measure of living cells.
Regarding “GCCUCAUGUUGACAGUGUCTT against 2310045B01Rik”, the z-score was inactive: 1.88.
In the case of CGAUGUCUGAGUUCAACACTT against Gclc it was inactive: 0.206.
In the case of GGGAAUACGUGUACUGAAGTT against Ttc17 it was inactive: -1.8.
In the case of GCAGAACUUGACCACUGCCTT against Defb2 it was inactive: 0.39; in that of “CGGGAAGCAUCACUAUUUCTT against 5830411E10Rik”, inactive: -2.01.
With “GUUGGUAAAGGUCCUUGCCTT against D17Wsu155e”, the z-score is inactive: -1.02.
Turning to GGUAUUCGAAGCAUACAAUTT against Pdha2, the z-score is inactive: -0.198.
In the case of CCUCCUAUUUGCUUCAUUUTT against Pscdbp it was inactive: -0.434; in that of GGAGGAAGAGAACUUCGUGTT against Fstl3, inactive: 0.0275; in that of GGAUCUAGAACAGAAAAUGTT against Stat3, inactive: 0.505.
Then GGAAAUGGCCUCCAUGAGATT against Krt1-14, with inactive: 0.261; and CCUUACAUGUUGACUACCCTT against Rnase13, with inactive: -0.327.
Consider GCAGUAUGGCUACCUACCUTT against Mmp14, for which the z-score is inactive: -1.86.
With “GGCCUUUUAUUAGUGAGGGTT against 4932435O22Rik”, the z-score is inactive: 0.016.
In the case of “GGUGGUUUUGUUUCUUUUUTT against 4921526G09Rik” it was inactive: 1.04; in that of GGGUAAACACCCAUUUAGCTT against Lbx2h, inactive: 1.15; in that of GGACACUUCCAAUGAGUCCTT against Chrm4, inactive: -0.178.
On to GGAUCAGUAGCAUUAACAATT against Tcf7l2, for which the z-score was inactive: -1.26.
Then GCCAGGGUAUUAAUGCCUCTT against Ebi2, with inactive: -0.606.
In the case of CCGACAUGUGGACAAAUGATT against Tas2r117 it was inactive: -0.205; in that of CCUCAAGAUAAACCGACAATT against Bard1, inactive: -1.47.
In the case of GCGGGCUGAAGAAGAAUUGTT against Ppp1r12c it was inactive: 0.25.
In the case of “CCCUUUCAUUGUGCAUUAATT against 3110052N05Rik”, the z-score was inactive: -2.21.
In the case of GGAUGAGUACACCUUUGUGTT against Chdh it was inactive: 1.95.
In the case of CGAUAAAGGCCAAAUACUGTT against Ssb it was inactive: -0.521; in that of “GGGUGAACUCGGACAUUGATT against 1700001L23Rik”, inactive: -1.62.
As to GGAAACUUCAGACUAGUCATT against Eif2s3y, the z-score is inactive: -0.802.
With GCUGAUCCGAUACAUCGACTT against Cuedc2, the z-score is inactive: -1.36.
With GGCUUAAUGUUGCUUCAGATT against Aven, the z-score was inactive: 0.96.
Then GCGCAUACGAUAUGUGACCTT against H2-Ab1, with inactive: 1.15.
Consider GGAACGAAUGUUCUUCGGUTT against Dst, for which the z-score is inactive: 1.05.
Turning to “GGAGUCUCAGAACAGCACATT against C530005A01Rik”, the z-score is inactive: 1.14.
On to GGCCACAGGAAGUCAGUUATT against Gsk3b, for which the z-score is inactive: -2.3.
In the case of CCUUGUAACUGAGGCCCGATT against Olfr120 it was inactive: -0.658; in that of GGAGCUAUAAUUAACAAGATT against Adam6, inactive: -0.0669; in that of “GGCACAUGUCAGAAUAGGCTT against 1110001A05Rik”, inactive: -0.121.
On to GGGCAUCCUGCUAGGCUUUTT against Adcy8, for which the z-score is inactive: -1.31.
Then “GGGAGAAUCGAACUAUAAATT against 1300006N24Rik”, with inactive: -0.0425; and GCAGUCGAUGUCAAGGUUATT against Plekhf2, with inactive: -1.19; and “GGAAACCAGUUGCUUAAGUTT against 4933404M02Rik”, with inactive: -0.0625.
In the case of GGAAAAAGCUACUGAGUCCTT against Cx3cl1, the z-score was inactive: 0.144.
GGAACAGAAACUGAAGGAUTT against Cyln2: the z-score is inactive: 0.128.
In the case of GGUUCAUUCUCUGCAUUAATT against Rpp40 it was inactive: -1.47.
In the case of GCGACCAGCUCUUUUAUACTT against Plod1 it was inactive: -0.132; in that of GGGUGAGCAAGGUUGUAAUTT against Pdgfb, inactive: -0.491; in that of GCCACGCAAUAAAGCAUCUTT against Sars1, inactive: -1.99.
In the case of GGAGUCUCCUUAUAUUAAUTT against Alcam it was inactive: -0.549.
GGAAGAGAUCGAUGAGACUTT against Cyp3a41: the z-score is inactive: -1.31.
Regarding GGAAAAGGAAGAACUGAUUTT against Sptlc1, the z-score was inactive: -0.0342.
As for GCCUUGUGGGAAGCAAAAATT against Pcyt2, the z-score was inactive: 0.779.
In the case of GGGUCAAUCAGAAGCUAGGTT against Creb3l4 it was inactive: 0.16.
Regarding GGUCCUACCUCAACAUCUGTT against Cap2, the z-score was inactive: 0.427.
Then “CCCGUGCCUUCCUUAAAGCTT against 9030405D14Rik”, with inactive: 0.576.
In the case of GGGACUUGUUGAGUUUAUATT against Ssa2 it was inactive: -0.00613; in that of “GGGAGAUCUCCAACACCAATT against B230317C12Rik”, inactive: 1.46; in that of GCAUGUUUUGGUGUAUAGUTT against Arl4, inactive: -0.633.
Consider CCUUGAGAAUAUGCUAAAATT against Abca15, for which the z-score was inactive: 2.02.
GGAAGUUAGUGAGUCUAUGTT against Rel: the z-score was inactive: -1.3.
In the case of GGAAUAGGCCUUCUUGCUGTT against Matr3, the z-score is inactive: -1.01.
Regarding GGUUACAGAACUCAACAAUTT against Dok5, the z-score is inactive: 0.397.
In the case of “UUGGGAAAACCAUGAUGCATT against 2010100O12Rik”, the z-score was inactive: -0.506.
With “GGUUCGAGAAAACAACUACTT against 2610027O18Rik”, the z-score is inactive: 0.402.
Then GCAUUGAUGUGAUUGAACCTT against Plxnb3, with inactive: -0.0869.
In the case of “CGUGAUGUACAUGCAGGAUTT against 4930570C03Rik” it was inactive: -0.669; in that of “CCUUUUACUCUAACGGACUTT against 4921507P07Rik”, inactive: -1.11; in that of GGAUGAUCAAAGCAUUGAUTT against Dmtf1, inactive: -1.36.
For the sequence GCUCAUCCAUCGUAGUAAGTT against Gm93, the z-score was inactive: 0.507.
In the case of GCUGCUGGAAACUAGACUGTT against Cyp2b13 it was inactive: -0.961; in that of CCUGCAAUCAAAACAUCAATT against V1rc1, inactive: 1.73; in that of “GUUAUCAGGAAGGAAAGCCTT against 1110058L19Rik”, inactive: -0.1.
On to GGCAUCGUCUGCACAAAGATT against Fbn2, for which the z-score is inactive: 1.93.
In the case of GCCAGAACUGAUCGAAAUGTT against Myh2 it was inactive: 1.63.
Then CCCGCACUCUUAGCAAUUATT against BC034507, with inactive: -0.559.
In the case of “CCCAAUUGUAGAGUCAUGGTT against 1810048P08Rik” it was inactive: 0.934; in that of GGCACUACUUCUAUCGUAGTT against Repin1, inactive: 0.153; in that of GCACUUUGUAUGUCUAUCUTT against Tnfaip1, inactive: -0.337.
For the sequence GGAAGAUGUUUUCAGACUCTT against Polm, the z-score is inactive: 0.642.
Then “CCGUAAUUACCUAAAACUCTT against 4933431N12Rik”, with inactive: -0.168; and GGAUGUGCUGACCUUACAGTT against Gaa, with inactive: 0.312.
In the case of GCAUAAUGAAGUUCCAAAUTT against Cast1 it was inactive: 0.19; in that of GGUAUGUGAUACAUCUAUUTT against Zfp52, inactive: -0.301.
In the case of GGUUUGCCCAGGAAUACAATT against Adprhl2 it was inactive: -1.28; in that of CCUUCCUAAUCUCUUGUUCTT against Rfc4, inactive: -0.109; in that of GGCCCUCAACCUAAUUAUGTT against Sec24c, inactive: 0.96.
In the case of GUAAGUUGUUUGAGGAAAGTT against Defb3, the z-score was inactive: 0.755.
Then “CGCAAGCCAAUCUUCGAAUTT against A230050P20Rik”, with inactive: 0.522; and GGAGGUGGUACAAUACACCTT against Gsg1, with inactive: 0.036.
As for CAAUGUGCAGAGUUUCCGATT against LOC547349, the z-score is inactive: -1.17.
Turning to “GCAGCAUGCCUGAAUAUUUTT against 2510048K03Rik”, the z-score is inactive: 1.49.
GUUCAACGAGAGUUCCAGUTT against Olfr898: the z-score was inactive: -0.166.
Regarding GGUCAAGUGCGAGAAACUCTT against Mafb, the z-score is inactive: -0.934.
In the case of GGUAAAGUAGGGAUGGAAUTT against Inpp4b, the z-score is inactive: 2.01.
With GGACAGAAGAAGAAAGCCCTT against Gpr22, the z-score was inactive: 0.46.
Then “GCCAUGUCAAUCAAUCACUTT against 8430423A01Rik”, with inactive: 0.706; and CCAUGGCGAUGUCAUGUUCTT against Kcnrg, with inactive: 1.05; and GGUCUGGUGUUGUAGGAUATT against Map1lc3b, with inactive: -0.598.
In the case of CCAACACGCGCUCUUUUGATT against Gm1568 it was inactive: 0.259; in that of GUGUCAUUUCCCGGGACAUTT against Atp5g1, inactive: -0.442; in that of GGAUAUCGAGGAGAUGAUCTT against Aoc3, inactive: 1.68.
With “CGAGAUCUCACAACUUAUATT against 4930431B11Rik”, the z-score was inactive: 1.05.
In the case of GGUUAAAAUGAGCUUGUUGTT against Rngtt it was inactive: -0.395; in that of GGAAGAAGAAGUUAUUGUGTT against BC025446, inactive: 0.193.
In the case of GUCAUCAGGACUGGGAAGUTT against Sprr2b it was inactive: -1.13; in that of “CCGUCGUCCUAGAAAAACCTT against 4921525L17Rik”, inactive: 1.49.
